Drawing on publication PMC5619949, this text covers binding for one substance.

Protein sequences, listed by entry. Tags and fused reporters are not part of them.
UniProt O75400: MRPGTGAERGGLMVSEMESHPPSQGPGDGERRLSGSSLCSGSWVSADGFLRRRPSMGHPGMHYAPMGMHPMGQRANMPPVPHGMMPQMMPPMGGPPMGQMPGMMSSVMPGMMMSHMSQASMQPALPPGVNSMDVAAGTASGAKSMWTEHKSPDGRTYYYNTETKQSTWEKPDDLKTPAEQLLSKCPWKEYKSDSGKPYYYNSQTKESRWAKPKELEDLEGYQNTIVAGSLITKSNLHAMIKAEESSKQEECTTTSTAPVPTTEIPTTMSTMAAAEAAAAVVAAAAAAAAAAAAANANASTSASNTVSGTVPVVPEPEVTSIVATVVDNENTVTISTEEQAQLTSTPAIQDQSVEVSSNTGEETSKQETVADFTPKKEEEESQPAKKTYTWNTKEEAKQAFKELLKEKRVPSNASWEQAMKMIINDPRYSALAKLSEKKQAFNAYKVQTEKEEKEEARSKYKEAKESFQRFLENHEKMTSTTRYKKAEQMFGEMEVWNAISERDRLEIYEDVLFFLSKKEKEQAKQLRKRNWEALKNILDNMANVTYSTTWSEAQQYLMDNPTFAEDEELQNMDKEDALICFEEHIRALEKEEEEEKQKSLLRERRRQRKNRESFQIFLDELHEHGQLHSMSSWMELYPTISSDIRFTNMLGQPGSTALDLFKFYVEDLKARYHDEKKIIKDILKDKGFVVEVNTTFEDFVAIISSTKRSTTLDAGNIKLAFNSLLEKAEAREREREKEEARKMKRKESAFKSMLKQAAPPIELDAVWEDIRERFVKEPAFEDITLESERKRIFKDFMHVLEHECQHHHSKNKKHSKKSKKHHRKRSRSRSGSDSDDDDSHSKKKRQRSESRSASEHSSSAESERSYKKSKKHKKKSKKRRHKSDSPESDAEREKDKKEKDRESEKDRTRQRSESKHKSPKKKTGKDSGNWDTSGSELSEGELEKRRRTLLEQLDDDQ
UniProt Q13435: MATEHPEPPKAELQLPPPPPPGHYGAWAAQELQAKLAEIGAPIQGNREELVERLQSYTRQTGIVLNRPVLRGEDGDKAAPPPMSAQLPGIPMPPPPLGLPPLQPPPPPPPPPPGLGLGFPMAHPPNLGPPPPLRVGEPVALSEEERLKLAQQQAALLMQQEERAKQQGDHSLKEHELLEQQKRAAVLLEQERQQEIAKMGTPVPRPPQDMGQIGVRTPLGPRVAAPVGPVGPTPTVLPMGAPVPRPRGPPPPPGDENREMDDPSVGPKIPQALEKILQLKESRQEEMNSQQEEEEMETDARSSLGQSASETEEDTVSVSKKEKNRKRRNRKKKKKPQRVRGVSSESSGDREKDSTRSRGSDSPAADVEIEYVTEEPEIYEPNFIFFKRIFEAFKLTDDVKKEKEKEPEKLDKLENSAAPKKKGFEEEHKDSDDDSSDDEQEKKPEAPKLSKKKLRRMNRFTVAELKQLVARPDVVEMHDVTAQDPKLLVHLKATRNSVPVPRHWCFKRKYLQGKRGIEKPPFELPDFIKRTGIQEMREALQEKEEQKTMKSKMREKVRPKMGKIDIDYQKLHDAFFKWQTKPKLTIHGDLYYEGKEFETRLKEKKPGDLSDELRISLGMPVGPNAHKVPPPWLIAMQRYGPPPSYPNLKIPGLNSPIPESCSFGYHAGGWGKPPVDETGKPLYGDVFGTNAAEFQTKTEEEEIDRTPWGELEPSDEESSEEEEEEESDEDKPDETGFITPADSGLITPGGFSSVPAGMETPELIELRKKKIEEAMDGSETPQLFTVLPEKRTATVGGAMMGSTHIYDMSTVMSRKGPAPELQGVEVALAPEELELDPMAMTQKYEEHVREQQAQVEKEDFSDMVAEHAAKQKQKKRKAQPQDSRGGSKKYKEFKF

These are yes or no findings as the source states them, for the method shown. Binding seen in cells or lysates may run through a third protein. Some results given as binding are weak or reduced against the parent protein; the word gives no strength.

The target of this experiment is GFP-PRPF40A (UniProt O75400). Kind of experiment: co-IP; GFP-Trap magnetic beads added to cleared lysate of HEK293 cells stably expressing GFP-PRPF40A; cells treated with DMSO or 20 µM hinokiflavone for 8 hr; Co-IP buffer (1 mM EDTA, 100 µM Na3VO4, 0.5% Triton X-100, 20 mM beta-Glycerol P), overnight at 4°C; western blot.

Regarding SF3B2 (from UniProt Q13435 1-895), the binding entry was “binds”.
